Patent US7238775B2 (The Salk Institute for Biological Studies, priority 2002, dated 2007)
Strings that start with PEPTIDE1 are HELM notation: dots part the residues, brackets hold end groups and non-standard residues.

Experiment: general procedure: Boc solid-phase peptide synthesis; chloromethylated resin or hydroxymethylated resin
Conditions: CZE

Row | Substance | final purity (method not given) (whole synthesis) | final purity (method not given) (late stage modification step)
1 | (cyclo)Cbm-Cys-Phe-4Aph-D-Trp-Lys-Thr-Phe-Cys-OH | about 98% | 
2 | (cyclo)Cbm-Cys-Phe-4Aph-D-Trp-Lys-Thr-Tyr-Cys-OH | about 98% | 
3 | (cyclo)Cbm-Cys-Phe-4Aph-Trp-Lys-Thr-Phe-Cys-OH | about 92% | 
4 | (cyclo)Cbm-Cys-Phe-4Aph-Trp-Lys-Thr-Tyr-Cys-OH | about 90% | 
5 | (cyclo)Cbm-Tyr-Cys-Phe-4Aph-Trp-Lys-Thr-Phe-Cys-OH | about 92% | 
6 | (cyclo)Cbm-Tyr-Cys-Phe-Amp-Trp-Lys-Thr-Phe-Cys-OH | about 91% | 
7 | (cyclo)Cys-Phe-Ala-D-Trp-Lys-Thr-Ala-Cys-OH | about 99% | 
8 | (cyclo)H-Cys-Phe-4Aph-2Nal-Lys-Thr-Phe-Cys-OH | greater than 99% | 
9 | (cyclo)H-Cys-Phe-4Aph-D-Trp-Lys-Thr-Phe-Cys-OH | about 98% | 
10 | (cyclo)H-Cys-Phe-4Aph-Trp-Lys-Thr-Phe-Cys-OH | greater than 97% | 
11 | (cyclo)H-Cys-Phe-4Aph-Trp-Lys-Thr-Tyr-Cys-OH | greater than 97% | 
12 | (cyclo)H-Cys-Phe-Ala-D-Trp-Lys-Thr-Phe-Cys-OH | greater than 93% | 
13 | (cyclo)H-Cys-Phe-Ala-Trp-Lys-Thr-Ala-Cys-OH | greater than 98% | 
14 | (cyclo)H-Cys-Phe-Ala-Trp-Lys-Thr-Phe-Cys-OH | about 98% | 
15 | (cyclo)H-Cys-Phe-Tyr-threo-(2R,3S)C^βMe-2Nal-Lys-Thr-Phe-Cys-OH | about 99% | 
16 | (cyclo)H-Cys-Phe-Tyr-threo-(2S,3R)C^βMe-2Nal-Lys-Thr-Phe-Cys-OH | about 99% | 
17 | (cyclo)H-D-Cys-Phe-Tyr-threo-(2R,3S)C^βMe-2Nal-Lys-Thr-Phe-Cys-OH | greater than 95% | 
18 | (cyclo)H-D-Cys-Phe-Tyr-threo-(2S,3R)C^βMe-2Nal-Lys-Thr-Phe-Cys-OH | greater than 95% | 
19 | (cyclo)H-Tyr-Cys-Phe-4 Amp-Trp-Lys-Thr-Phe-Cys-OH | greater than 98% | 
20 | (cyclo)H-Tyr-Cys-Phe-4Aph-D-Trp-Lys-Thr-Phe-Cys-OH | about 98% | 
21 | (cyclo)H-Tyr-Cys-Phe-4Aph-Trp-Lys-Thr-Phe-Cys-OH | about 98% | 
22 | PEPTIDE1{[3ITyr].C.F.A.W.K.T.F.C}$PEPTIDE1,PEPTIDE1,2:R3-9:R3$$$V2.0 |  | about 99%
